From US3966744A, “Spin labeled compounds” (priority 1974, dated 1976)

System: antibody (methadone assay)
Format: binding, rabbit
Settings: 3.0 μg/ml

With `CCOC(=O)C1(c2ccccc2)CCN(C)CC1` [demerol] the “% Mobilization” value was 7%.
